{
  "source": "PubChem BioAssay AID248",
  "about": "(DTP/NCI, 2004)",
  "tested_on": "L1210 leukemia ip in BDF1 mice, survival T/C",
  "experiment": "NCI In Vivo Anticancer Drug Screen. Data for tumor model L1210 Leukemia (intraperitoneal) in B6D2F1 (BDF1) mice",
  "details": "T/C endpoint: mean survival time, higher T/C = longer survival",
  "note": "The list shows only some results of the screen, not a fair sample: it gathers tests that were run many times, whatever their T/C, doses with no T/C, and many T/C values between a quarter and a half above the control. Other doses and runs of a compound stand elsewhere. T/C is the treated group as % of the vehicle group. Some entries give survivors of the animals treated and no T/C: the source files T/C as zero there, which appears to mark a toxic dose or a test without result, not a measured value. Some survivor counts are full or nearly so, which does not show that the dose was tolerated: survival well below the control is almost never listed, so the zero probably covers shortened survival too. Counts of survivors are from the toxicity check (mostly the fifth day) where no day follows; animals may have died later. Schedules are NCI's codes, taken here to give the interval after Q, in days (D) or hours (H), and the number of doses after X. Some schedules carry Z or #; the key to these is not given. Where survival is the endpoint, the PubChem record calls one and a half times the control and up active, and a quarter to a half above the control has no call in these data; cut-offs in other NCI protocols can differ. Some entries hold several experiments; their values stand side by side, smallest first. Signs of the kind (2×) stand for listed records that agree.",
  "data": [
    {"smiles": "N=[N+]=CC(=O)OCC(N)C(=O)O", "note": "(stereo not given)", "values": [
      {"measurement": "T/C", "setting": "dose: 24.0 mg/kg/injection, schedule: Q03DX006 (ip), vehicle: saline", "result": "148 % of control"},
      {"measurement": "T/C", "setting": "dose: 25.0 mg/kg/injection, schedule: Q01DX010 (ip), vehicle: saline", "result": "97, 107, 123, 132 % of control"},
      {"measurement": "T/C", "setting": "dose: 26.0 mg/kg/injection, schedule: Q01DX009 (ip), vehicle: saline", "result": "127 % of control"},
      {"measurement": "T/C", "setting": "dose: 28.0 mg/kg/injection, schedule: Q01DX001 (ip), vehicle: saline", "result": "127 % of control"},
      {"measurement": "T/C", "setting": "dose: 28.0 mg/kg/injection, schedule: Q07DX003 (ip), vehicle: saline", "result": "132 % of control"},
      {"measurement": "T/C", "setting": "dose: 28.0 mg/kg/injection, schedule: Q## X004 (ip), vehicle: saline", "result": "128 % of control"},
      {"measurement": "T/C", "setting": "dose: 32.0 mg/kg/injection, schedule: Q01DX001 (oral), vehicle: saline", "result": "136 % of control"},
      {"measurement": "T/C", "setting": "dose: 32.0 mg/kg/injection, schedule: Q01DX006 (iv), vehicle: saline", "result": "142 % of control"},
      {"measurement": "T/C", "setting": "dose: 32.0 mg/kg/injection, schedule: Q01DX009 (ip), vehicle: saline", "result": "145 % of control"},
      {"measurement": "T/C", "setting": "dose: 32.0 mg/kg/injection, schedule: Q01DX009 (oral), vehicle: saline, evaluated on day 40", "result": "141 % of control"},
      {"measurement": "T/C", "setting": "dose: 32.0 mg/kg/injection, schedule: Q01DX009 (oral), vehicle: saline, evaluated on day 60", "result": "139 and 140 % of control"},
      {"measurement": "T/C", "setting": "dose: 32.0 mg/kg/injection, schedule: Q01DX Z (im), vehicle: saline", "result": "142 % of control"},
      {"measurement": "T/C", "setting": "dose: 32.0 mg/kg/injection, schedule: Q01DX Z (oral), vehicle: saline", "result": "137 % of control"},
      {"measurement": "T/C", "setting": "dose: 32.0 mg/kg/injection, schedule: Q03HX024 (oral), vehicle: saline", "result": "130 and 134 % of control"},
      {"measurement": "T/C", "setting": "dose: 32.0 mg/kg/injection, schedule: Q04DX003 (oral), vehicle: saline", "result": "128 % of control"},
      {"measurement": "T/C", "setting": "dose: 32.0 mg/kg/injection, schedule: Q## X003 (ip), vehicle: saline", "result": "135 % of control"},
      {"measurement": "T/C", "setting": "dose: 32.0 mg/kg/injection, schedule: Q## X008 (ip), vehicle: saline", "result": "137 % of control"},
      {"measurement": "T/C", "setting": "dose: 32.0 mg/kg/injection, schedule: Q## X024 (oral), vehicle: saline", "result": "126 % of control"},
      {"measurement": "T/C", "setting": "dose: 34.0 mg/kg/injection, schedule: Q02DX010 (ip), vehicle: carboxymethylcellulose (CMC)", "result": "130 % of control"},
      {"measurement": "T/C", "setting": "dose: 34.5 mg/kg/injection, schedule: Q02DX010 (ip), vehicle: carboxymethylcellulose (CMC)", "result": "147, 153, 159, 170, 182 % of control"},
      {"measurement": "T/C", "setting": "dose: 35.0 mg/kg/injection, schedule: Q02DX010 (ip), vehicle: carboxymethylcellulose (CMC)", "result": "136 % of control"},
      {"measurement": "T/C", "setting": "dose: 36.0 mg/kg/injection, schedule: Q02DX010 (ip), vehicle: carboxymethylcellulose (CMC)", "result": "128, 140, 141, 165 % of control"},
      {"measurement": "T/C", "setting": "dose: 36.0 mg/kg/injection, schedule: Q02DX010 (ip), vehicle: other", "result": "137 % of control"},
      {"measurement": "T/C", "setting": "dose: 40.0 mg/kg/injection, schedule: Q04DX002 (ip), vehicle: saline", "result": "123, 124, 125, 153 % of control"},
      {"measurement": "T/C", "setting": "dose: 42.0 mg/kg/injection, schedule: Q## X004 (ip), vehicle: saline", "result": "144 % of control"},
      {"measurement": "T/C", "setting": "dose: 43.0 mg/kg/injection, schedule: Q01DX001 (ip), vehicle: saline", "result": "125 % of control"},
      {"measurement": "T/C", "setting": "dose: 47.6 mg/kg/injection, schedule: Q02DX010 (ip), vehicle: carboxymethylcellulose (CMC)", "result": "132 % of control"},
      {"measurement": "T/C", "setting": "dose: 48.0 mg/kg/injection, schedule: Q03DX006 (ip), vehicle: saline", "result": "125 % of control"},
      {"measurement": "T/C", "setting": "dose: 50.0 mg/kg/injection, schedule: Q01DX001 (ip), vehicle: saline", "result": "126 % of control"},
      {"measurement": "survivor count", "setting": "dose: 50.0 mg/kg/injection, schedule: Q01DX010 (ip), vehicle: saline", "result": "2 of 6"},
      {"measurement": "T/C", "setting": "dose: 51.75 mg/kg/injection, schedule: Q02DX010 (ip), vehicle: carboxymethylcellulose (CMC)", "result": "112, 117 (2×), 118, 124 % of control"},
      {"measurement": "T/C", "setting": "dose: 52.0 mg/kg/injection, schedule: Q02DX010 (ip), vehicle: carboxymethylcellulose (CMC)", "result": "128 % of control"},
      {"measurement": "T/C", "setting": "dose: 54.0 mg/kg/injection, schedule: Q02DX010 (ip), vehicle: carboxymethylcellulose (CMC)", "result": "89, 109, 111, 132 % of control"},
      {"measurement": "T/C", "setting": "dose: 56.0 mg/kg/injection, schedule: Q01DX001 (ip), vehicle: saline", "result": "125 % of control"},
      {"measurement": "T/C", "setting": "dose: 56.0 mg/kg/injection, schedule: Q07DX003 (ip), vehicle: saline", "result": "149 % of control"},
      {"measurement": "T/C", "setting": "dose: 63.0 mg/kg/injection, schedule: Q## X004 (ip), vehicle: saline", "result": "130 % of control"},
      {"measurement": "survivor count", "setting": "dose: 64.0 mg/kg/injection, schedule: Q01DX006 (iv), vehicle: saline", "result": "6 of 6"},
      {"measurement": "T/C", "setting": "dose: 64.0 mg/kg/injection, schedule: Q01DX009 (oral), vehicle: saline, evaluated on day 40", "result": "125 % of control"},
      {"measurement": "T/C", "setting": "dose: 64.0 mg/kg/injection, schedule: Q01DX009 (oral), vehicle: saline, evaluated on day 60", "result": "133 % of control"},
      {"measurement": "survivor count", "setting": "dose: 64.0 mg/kg/injection, schedule: Q01DX009 (oral), vehicle: saline", "result": "5 of 8"},
      {"measurement": "survivor count", "setting": "dose: 64.0 mg/kg/injection, schedule: Q01DX Z (im), vehicle: saline", "result": "4 of 6"},
      {"measurement": "survivor count", "setting": "dose: 64.0 mg/kg/injection, schedule: Q01DX Z (ip), vehicle: saline", "result": "1 of 6"},
      {"measurement": "survivor count", "setting": "dose: 64.0 mg/kg/injection, schedule: Q01DX Z (oral), vehicle: saline", "result": "5 of 6"},
      {"measurement": "survivor count", "setting": "dose: 64.0 mg/kg/injection, schedule: Q01DX Z (sc), vehicle: saline", "result": "6 of 6"},
      {"measurement": "T/C", "setting": "dose: 64.0 mg/kg/injection, schedule: Q## X003 (ip), vehicle: saline", "result": "133 % of control"}
    ]}
  ]
}
